This is an account of results in article PMC7971865.

Sequences of proteins named here, by UniProt entry; tags and fusion partners are left off.
UniProt P06240: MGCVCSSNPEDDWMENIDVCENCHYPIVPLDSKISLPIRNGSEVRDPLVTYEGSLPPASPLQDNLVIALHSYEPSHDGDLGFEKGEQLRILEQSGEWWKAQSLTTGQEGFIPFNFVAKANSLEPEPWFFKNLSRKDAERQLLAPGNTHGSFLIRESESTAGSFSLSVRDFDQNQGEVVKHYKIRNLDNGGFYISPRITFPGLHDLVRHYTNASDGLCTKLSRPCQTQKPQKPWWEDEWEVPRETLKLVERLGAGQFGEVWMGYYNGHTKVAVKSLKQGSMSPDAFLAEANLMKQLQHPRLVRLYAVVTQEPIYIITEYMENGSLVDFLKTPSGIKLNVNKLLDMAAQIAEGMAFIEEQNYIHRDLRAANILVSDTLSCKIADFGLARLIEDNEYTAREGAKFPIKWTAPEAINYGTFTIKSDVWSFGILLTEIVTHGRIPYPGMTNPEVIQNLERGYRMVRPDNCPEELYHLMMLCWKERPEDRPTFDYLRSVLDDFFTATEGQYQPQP
UniProt P41241: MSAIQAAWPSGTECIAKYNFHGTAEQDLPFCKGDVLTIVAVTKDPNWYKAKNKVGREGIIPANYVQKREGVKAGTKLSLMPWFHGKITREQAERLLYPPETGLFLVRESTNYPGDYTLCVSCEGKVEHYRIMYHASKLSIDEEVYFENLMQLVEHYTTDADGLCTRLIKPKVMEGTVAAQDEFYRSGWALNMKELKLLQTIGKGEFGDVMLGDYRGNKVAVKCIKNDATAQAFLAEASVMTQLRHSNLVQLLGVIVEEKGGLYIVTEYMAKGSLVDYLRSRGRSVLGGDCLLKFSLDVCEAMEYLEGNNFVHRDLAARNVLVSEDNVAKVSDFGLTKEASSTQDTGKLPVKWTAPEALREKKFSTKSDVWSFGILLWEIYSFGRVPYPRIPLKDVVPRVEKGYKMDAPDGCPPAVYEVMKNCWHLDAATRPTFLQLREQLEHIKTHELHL

No constants are given. Whether binding was seen depends on the method and setting. Binding seen in cells or lysates may run through a third protein. Some results given as binding are weak or reduced against the parent protein; the word gives no strength.

The target in the assay is LCK (mouse (endogenous in splenic CD4+ T cells)) (UniProt P06240). Description: co-IP; LCK antibody (4 ug, 12 h, 4°C) and protein A/G plus agarose beads; lysates of CD4+ T cells from Spry2+/+ and Spry2-/- mice, unstimulated or anti-CD3/CD28-stimulated (10 min); 25 mM Tris-HCl pH 7.4, 150 mM NaCl, 1.0% TritonX-100, 5 mM EDTA, 0.1% BSA; immunoblot of LCK, CSK and p-CSK.

Take “p-CSK (from UniProt P41241 1-450) (enzyme)”: the binding result is “binds”.
On to “CSK (from UniProt P41241 1-450) (enzyme)”, for which the binding entry was “binds”.
